From publication PMC8232280
No constants are given. Whether binding was seen depends on the method and setting. In cells and extracts the contact can be indirect. Some results given as binding are weak or reduced against the parent protein; the word gives no strength.

Chains of the proteins cited; added tags and fusions are not shown.
UniProt P19338: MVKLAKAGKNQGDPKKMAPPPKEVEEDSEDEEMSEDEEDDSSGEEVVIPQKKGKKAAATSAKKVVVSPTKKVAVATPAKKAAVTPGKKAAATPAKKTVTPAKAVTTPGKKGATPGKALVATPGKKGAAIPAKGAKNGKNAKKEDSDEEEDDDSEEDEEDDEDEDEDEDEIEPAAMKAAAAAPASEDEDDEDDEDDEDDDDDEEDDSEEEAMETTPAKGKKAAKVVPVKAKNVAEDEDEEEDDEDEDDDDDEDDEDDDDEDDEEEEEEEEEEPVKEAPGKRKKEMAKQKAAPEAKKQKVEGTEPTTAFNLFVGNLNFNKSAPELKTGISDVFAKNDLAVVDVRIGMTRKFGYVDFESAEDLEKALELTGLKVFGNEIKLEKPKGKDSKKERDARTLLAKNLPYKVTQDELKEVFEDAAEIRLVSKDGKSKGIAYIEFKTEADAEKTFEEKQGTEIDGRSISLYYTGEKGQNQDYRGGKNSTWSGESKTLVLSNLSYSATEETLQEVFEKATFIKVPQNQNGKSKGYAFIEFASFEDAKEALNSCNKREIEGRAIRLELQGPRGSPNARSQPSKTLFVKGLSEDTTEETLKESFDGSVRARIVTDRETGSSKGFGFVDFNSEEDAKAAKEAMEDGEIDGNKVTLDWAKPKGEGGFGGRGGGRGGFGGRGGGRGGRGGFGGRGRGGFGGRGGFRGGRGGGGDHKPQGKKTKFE
UniProt P35222: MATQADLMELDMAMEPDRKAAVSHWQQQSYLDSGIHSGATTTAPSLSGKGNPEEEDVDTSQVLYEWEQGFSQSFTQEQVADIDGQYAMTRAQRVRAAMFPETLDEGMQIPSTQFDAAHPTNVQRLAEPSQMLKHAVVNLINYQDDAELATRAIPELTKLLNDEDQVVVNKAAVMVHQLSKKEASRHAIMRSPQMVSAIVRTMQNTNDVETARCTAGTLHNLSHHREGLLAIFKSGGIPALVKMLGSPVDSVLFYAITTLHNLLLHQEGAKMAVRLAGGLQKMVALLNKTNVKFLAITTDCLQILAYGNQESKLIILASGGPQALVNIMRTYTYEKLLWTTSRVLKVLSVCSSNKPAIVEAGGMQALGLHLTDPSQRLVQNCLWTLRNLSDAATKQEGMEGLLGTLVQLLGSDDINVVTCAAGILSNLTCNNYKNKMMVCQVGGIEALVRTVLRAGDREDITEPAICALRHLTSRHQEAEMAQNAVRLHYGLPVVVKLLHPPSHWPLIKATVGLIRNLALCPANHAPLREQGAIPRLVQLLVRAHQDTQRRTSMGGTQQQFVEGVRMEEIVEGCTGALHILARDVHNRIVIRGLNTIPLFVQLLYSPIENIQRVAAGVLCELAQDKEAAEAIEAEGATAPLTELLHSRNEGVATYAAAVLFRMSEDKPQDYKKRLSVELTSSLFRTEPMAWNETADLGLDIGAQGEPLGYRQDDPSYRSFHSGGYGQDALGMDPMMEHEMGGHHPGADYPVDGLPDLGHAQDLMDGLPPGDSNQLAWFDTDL

Target: Nucleolin (human (endogenous in MIA PaCa-2 and Panc-1)) (UniProt P19338)
Assay: co-IP; nucleolin immunoprecipitated (5 µg rabbit anti-nucleolin, Abcam ab22758; control rabbit IgG) from 1 mg of the extranuclear fraction of MIA PaCa-2 and Panc-1 cells stimulated or not with Wnt3a-CM for 3 h; 1 h at 4 °C; protein G sepharose; Western blotting with anti-β-catenin

In the case of β-catenin (from UniProt P35222 1-781), the binding was “binds”.
